Measurements reported in PMC8580996, “2-Oxoglutarate derivatives can selectively enhance or inhibit the activity of human oxygenases” (Nature Communications, 2021).
“And” between values parts separate entries of the source, which are not always exact repeats. Equal entries are not always repeated. The source gives many values for each of these; only a part stands here.

The chains behind the UniProt entries cited, without tags or fusion partners. Where a name states a change or a piece, a line headed by the entry shows the natural chain unless it says otherwise.
UniProt Q9NWT6: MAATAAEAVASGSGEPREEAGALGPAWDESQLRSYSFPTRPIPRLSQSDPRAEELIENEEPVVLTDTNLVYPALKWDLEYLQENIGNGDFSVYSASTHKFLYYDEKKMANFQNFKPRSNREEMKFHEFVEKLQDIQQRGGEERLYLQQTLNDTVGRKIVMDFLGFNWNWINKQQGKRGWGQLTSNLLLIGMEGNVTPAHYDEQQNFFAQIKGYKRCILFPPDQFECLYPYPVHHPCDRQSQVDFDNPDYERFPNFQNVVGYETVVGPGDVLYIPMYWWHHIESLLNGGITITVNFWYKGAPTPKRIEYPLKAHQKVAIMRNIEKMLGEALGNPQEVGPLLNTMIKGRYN

Target: FIH (Homo sapiens, UniProt Q9NWT6)
Experiment: FIH steady-state kinetic parameters (SPE-MS, initial hydroxylation rates)
Type: biochemical
Experimental: Final 2OG/2OG derivative concentrations are given in Supplementary Figs. 5 and 6. Reactions were monitored with a rate of ~1 sample/40 s using the same SPE-MS configuration as described above. Data were analyzed as described above and the slopes of the initial reaction rates (Supplementary Figs. 5 and 6) fitted to a Michaelis–Menten plot using non-linear regression (GraphPad Prism 5). […]
determine kinetic parameters for 2OG derivatives (continues on the following page). Maximum velocities (vapp ) and Michaelis constants (Kapp) of FIH were determined in independent triplicates for 2OG and the 2OG […]
SPE-MS as described in the Methods section. […]
acid (LAA), and 20 μM ammonium iron(II) sulfate hexahydrate (FAS, (NH4)2Fe(SO4)2·6H2O) in buffer (50 mM […]
Tris, 50 mM NaCl, pH 7.5, 20° C). […]
data are provided as a Source Data file. […]
concentrations of 2OG; (b) hydroxylation rates used to determine kinetic parameters of FIH for 2OG; (c) time […]
3-methyl-2OG (1); (d) hydroxylation rates used to determine kinetic parameters of FIH for 1; (e) time course of […]
2OG (12); (f) hydroxylation rates used to determine kinetic parameters of FIH for 12; (g) time course of the FIH- […]
(h) hydroxylation rates used to determine kinetic parameters of FIH for 14; (i) time course of the FIH-catalyzed […]
(carboxycarbonyl)cyclopentane-1-carboxylic acid (22); (j) hydroxylation rates used to determine kinetic parameters of FIH for 22.
Supplementary Figure 6. Hydroxylation rates of FIH-catalyzed CA1-20 hydroxylations used to determine kinetic parameters for 2OG derivatives (continues on the following page). Maximum velocities (vapp ) and […]
ammonium iron(II) sulfate hexahydrate (FAS, (NH4)2Fe(SO4)2·6H2O) in buffer (50 mM Tris, 50 mM NaCl, pH […]
Source data are provided as a Source […]
of 2OG; (b) hydroxylation rates used to determine kinetic parameters of FIH for 2OG; (c) time course of the FIH-catalyzed hydroxylation reaction of the CA1-20 peptide for the shown concentrations of 3-methyl-2OG (1); (d) hydroxylation rates used to determine kinetic parameters of FIH for 1; (e) time course of the FIH -catalyzed hydroxylation reaction of the CA 1-20 peptide for the shown concentrations of 4 -methyl-2OG (12); (f) hydroxylation rates used to determine kinetic parameters of FIH for 12; (g) time course of the FIH-catalyzed hydroxylation reaction of the CA1-20 peptide for the shown concentrations of 4-ethyl-2OG (14); (h) hydroxylation rates used to determine kinetic parameters of FIH for 14; (i) time course of the FIH-catalyzed hydroxylation reaction of the CA1-20 peptide for the shown concentrations of 3-(carboxycarbonyl)cyclopentane-1-carboxylic acid (22); (j) hydroxylation rates used to determine kinetic parameters of FIH for 22.

CC(CC(=O)O)C(=O)C(=O)O (stereo not drawn) [compound 1, 3-methyl-2OG]
SPE-MS determined concentration of hydroxylated HIF-1a peptide (0.5 uM compound 1, time 4.19733 min): 0.09985 µM and 0.1367 µM and 0.0999 µM
SPE-MS determined concentration of hydroxylated HIF-1a peptide (0.5 uM compound 1, time 4.89717 min): 0.1183 µM and 0.1518 µM and 0.1027 µM
SPE-MS determined concentration of hydroxylated HIF-1a peptide (0.5 uM compound 1, time 5.5955 min): 0.1128 µM and 0.1571 µM and 0.1146 µM
SPE-MS determined concentration of hydroxylated HIF-1a peptide (0.5 uM compound 1, time 6.29533 min): 0.1153 µM and 0.1469 µM and 0.12 µM
SPE-MS determined concentration of hydroxylated HIF-1a peptide (1 uM compound 1, time 3.49667 min): 0.1617 µM and 0.1864 µM
SPE-MS determined concentration of hydroxylated HIF-1a peptide (1 uM compound 1, time 4.19733 min): 0.1549 µM and 0.1772 µM and 0.203 µM
SPE-MS determined concentration of hydroxylated HIF-1a peptide (1 uM compound 1, time 4.89717 min): 0.1638 µM and 0.199 µM and 0.2251 µM
SPE-MS determined concentration of hydroxylated HIF-1a peptide (1 uM compound 1, time 5.5955 min): 0.1763 µM and 0.1946 µM and 0.2233 µM
SPE-MS determined concentration of hydroxylated HIF-1a peptide (1 uM compound 1, time 6.29533 min): 0.1801 µM and 0.2001 µM and 0.2329 µM
SPE-MS determined concentration of hydroxylated HIF-1a peptide (2 uM compound 1, time 4.19733 min): 0.29 µM and 0.301 µM and 0.2508 µM
SPE-MS determined concentration of hydroxylated HIF-1a peptide (2 uM compound 1, time 4.89717 min): 0.3091 µM and 0.3314 µM and 0.2774 µM
SPE-MS determined concentration of hydroxylated HIF-1a peptide (2 uM compound 1, time 5.5955 min): 0.3128 µM and 0.3566 µM and 0.2878 µM
SPE-MS determined concentration of hydroxylated HIF-1a peptide (2 uM compound 1, time 6.29533 min): 0.3204 µM and 0.3536 µM and 0.2852 µM
SPE-MS determined concentration of hydroxylated HIF-1a peptide (4 uM compound 1, time 4.19733 min): 0.4238 µM and 0.439 µM and 0.3845 µM
SPE-MS determined concentration of hydroxylated HIF-1a peptide (4 uM compound 1, time 4.89717 min): 0.4637 µM and 0.4839 µM and 0.4289 µM
SPE-MS determined concentration of hydroxylated HIF-1a peptide (4 uM compound 1, time 5.5955 min): 0.4881 µM and 0.5234 µM and 0.4502 µM
SPE-MS determined concentration of hydroxylated HIF-1a peptide (4 uM compound 1, time 6.29533 min): 0.4868 µM and 0.5247 µM and 0.4418 µM
SPE-MS determined concentration of hydroxylated HIF-1a peptide (8 uM compound 1, time 4.19733 min): 0.5414 µM and 0.5327 µM and 0.4646 µM
SPE-MS determined concentration of hydroxylated HIF-1a peptide (8 uM compound 1, time 4.89717 min): 0.6039 µM and 0.5792 µM and 0.4997 µM
SPE-MS determined concentration of hydroxylated HIF-1a peptide (8 uM compound 1, time 5.5955 min): 0.6269 µM and 0.6162 µM and 0.5347 µM
SPE-MS determined concentration of hydroxylated HIF-1a peptide (8 uM compound 1, time 6.29533 min): 0.6572 µM and 0.6309 µM and 0.5551 µM
SPE-MS determined concentration of hydroxylated HIF-1a peptide (16 uM compound 1, time 4.19733 min): 0.7257 µM and 0.6409 µM and 0.6248 µM
SPE-MS determined concentration of hydroxylated HIF-1a peptide (16 uM compound 1, time 4.89717 min): 0.8191 µM and 0.7031 µM and 0.6964 µM
SPE-MS determined concentration of hydroxylated HIF-1a peptide (16 uM compound 1, time 5.5955 min): 0.8529 µM and 0.7673 µM and 0.7539 µM
SPE-MS determined concentration of hydroxylated HIF-1a peptide (16 uM compound 1, time 6.29533 min): 0.8659 µM and 0.793 µM and 0.7641 µM
SPE-MS determined concentration of hydroxylated HIF-1a peptide (32 uM compound 1, time 4.19733 min): 0.6566 µM and 0.7389 µM and 0.664 µM
SPE-MS determined concentration of hydroxylated HIF-1a peptide (32 uM compound 1, time 4.89717 min): 0.7196 µM and 0.8012 µM and 0.7239 µM
SPE-MS determined concentration of hydroxylated HIF-1a peptide (32 uM compound 1, time 5.5955 min): 0.7729 µM and 0.8791 µM and 0.7696 µM
SPE-MS determined concentration of hydroxylated HIF-1a peptide (32 uM compound 1, time 6.29533 min): 0.7734 µM and 0.9001 µM and 0.7605 µM

O=C(O)C(=O)C1CCC(C(=O)O)C1 (stereo not drawn) [compound 22, 3-(carboxycarbonyl)cyclopentane-1-carboxylic acid]
SPE-MS determined concentration of hydroxylated HIF-1a peptide (4 uM compound 22 as cosubstrate, time 4.19733 min, replicates 1-3): 0.0687 µM and 0.08548 µM and 0.04585 µM
SPE-MS determined concentration of hydroxylated HIF-1a peptide (4 uM compound 22 as cosubstrate, time 4.89717 min, replicates 1-3): 0.06536 µM and 0.08976 µM and 0.05821 µM
SPE-MS determined concentration of hydroxylated HIF-1a peptide (4 uM compound 22 as cosubstrate, time 5.5955 min, replicates 1-3): 0.06524 µM and 0.0905 µM and 0.04999 µM
SPE-MS determined concentration of hydroxylated HIF-1a peptide (4 uM compound 22 as cosubstrate, time 6.29533 min, replicates 1-3): 0.07092 µM and 0.0912 µM and 0.06779 µM
SPE-MS determined concentration of hydroxylated HIF-1a peptide (8 uM compound 22 as cosubstrate, time 4.19733 min, replicates 1-3): 0.08132 µM and 0.1065 µM
SPE-MS determined concentration of hydroxylated HIF-1a peptide (8 uM compound 22 as cosubstrate, time 4.89717 min, replicates 1-3): 0.08477 µM and 0.08938 µM and 0.1172 µM
SPE-MS determined concentration of hydroxylated HIF-1a peptide (8 uM compound 22 as cosubstrate, time 5.5955 min, replicates 1-3): 0.09486 µM and 0.09401 µM and 0.1257 µM
SPE-MS determined concentration of hydroxylated HIF-1a peptide (8 uM compound 22 as cosubstrate, time 6.29533 min, replicates 1-3): 0.09139 µM and 0.0929 µM and 0.1229 µM
SPE-MS determined concentration of hydroxylated HIF-1a peptide (16 uM compound 22 as cosubstrate, time 4.19733 min, replicates 1-3): 0.1145 µM and 0.1416 µM and 0.1182 µM
SPE-MS determined concentration of hydroxylated HIF-1a peptide (16 uM compound 22 as cosubstrate, time 4.89717 min, replicates 1-3): 0.1267 µM and 0.1507 µM and 0.1165 µM
SPE-MS determined concentration of hydroxylated HIF-1a peptide (16 uM compound 22 as cosubstrate, time 5.5955 min, replicates 1-3): 0.1292 µM and 0.1609 µM and 0.1309 µM
SPE-MS determined concentration of hydroxylated HIF-1a peptide (16 uM compound 22 as cosubstrate, time 6.29533 min, replicates 1-3): 0.1357 µM and 0.1671 µM and 0.1126 µM
SPE-MS determined concentration of hydroxylated HIF-1a peptide (32 uM compound 22 as cosubstrate, time 4.19733 min, replicates 1-3): 0.1616 µM and 0.1896 µM and 0.1548 µM
SPE-MS determined concentration of hydroxylated HIF-1a peptide (32 uM compound 22 as cosubstrate, time 4.89717 min, replicates 1-3): 0.1701 µM and 0.1912 µM and 0.1711 µM
SPE-MS determined concentration of hydroxylated HIF-1a peptide (32 uM compound 22 as cosubstrate, time 5.5955 min, replicates 1-3): 0.1895 µM and 0.2188 µM and 0.1879 µM
SPE-MS determined concentration of hydroxylated HIF-1a peptide (32 uM compound 22 as cosubstrate, time 6.29533 min, replicates 1-3): 0.1873 µM and 0.219 µM and 0.1996 µM
SPE-MS determined concentration of hydroxylated HIF-1a peptide (64 uM compound 22 as cosubstrate, time 4.19733 min, replicates 1-3): 0.1876 µM and 0.2212 µM and 0.2004 µM
SPE-MS determined concentration of hydroxylated HIF-1a peptide (64 uM compound 22 as cosubstrate, time 4.89717 min, replicates 1-3): 0.2003 µM and 0.2402 µM and 0.2163 µM
SPE-MS determined concentration of hydroxylated HIF-1a peptide (64 uM compound 22 as cosubstrate, time 5.5955 min, replicates 1-3): 0.2245 µM and 0.264 µM and 0.2398 µM
SPE-MS determined concentration of hydroxylated HIF-1a peptide (64 uM compound 22 as cosubstrate, time 6.29533 min, replicates 1-3): 0.2275 µM and 0.267 µM and 0.2434 µM
SPE-MS determined concentration of hydroxylated HIF-1a peptide (128 uM compound 22 as cosubstrate, time 4.19733 min, replicates 1-3): 0.221 µM and 0.2386 µM and 0.2344 µM
SPE-MS determined concentration of hydroxylated HIF-1a peptide (128 uM compound 22 as cosubstrate, time 4.89717 min, replicates 1-3): 0.2347 µM and 0.2601 µM and 0.2594 µM
SPE-MS determined concentration of hydroxylated HIF-1a peptide (128 uM compound 22 as cosubstrate, time 5.5955 min, replicates 1-3): 0.2462 µM and 0.2725 µM and 0.2749 µM
SPE-MS determined concentration of hydroxylated HIF-1a peptide (128 uM compound 22 as cosubstrate, time 6.29533 min, replicates 1-3): 0.2654 µM and 0.2853 µM and 0.2954 µM
SPE-MS determined concentration of hydroxylated HIF-1a peptide (256 uM compound 22 as cosubstrate, time 4.19733 min, replicates 2-3 (replicate 1 empty)): 0.263 µM and 0.2519 µM
SPE-MS determined concentration of hydroxylated HIF-1a peptide (256 uM compound 22 as cosubstrate, time 4.89717 min, replicates 2-3 (replicate 1 empty)): 0.2861 µM and 0.277 µM
SPE-MS determined concentration of hydroxylated HIF-1a peptide (256 uM compound 22 as cosubstrate, time 5.5955 min, replicates 2-3 (replicate 1 empty)): 0.3111 µM and 0.298 µM
SPE-MS determined concentration of hydroxylated HIF-1a peptide (256 uM compound 22 as cosubstrate, time 6.29533 min, replicates 2-3 (replicate 1 empty)): 0.3064 µM and 0.3077 µM
